Among the data in article PMC6828677 are binding values, retold here.

By UniProt entry, the sequences of proteins in these tests, tags left out. Where a name states a change or a piece, a line headed by the entry shows the natural chain unless it says otherwise.
UniProt P25963: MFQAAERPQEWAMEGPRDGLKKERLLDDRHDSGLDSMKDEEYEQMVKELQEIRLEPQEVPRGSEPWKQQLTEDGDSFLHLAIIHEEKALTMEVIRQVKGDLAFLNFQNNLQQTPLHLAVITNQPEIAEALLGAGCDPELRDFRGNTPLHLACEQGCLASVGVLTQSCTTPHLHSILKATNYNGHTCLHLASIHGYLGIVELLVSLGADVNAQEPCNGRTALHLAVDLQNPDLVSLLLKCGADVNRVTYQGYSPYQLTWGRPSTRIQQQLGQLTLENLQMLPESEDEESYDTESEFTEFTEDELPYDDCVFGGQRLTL
UniProt Q7Z6E9: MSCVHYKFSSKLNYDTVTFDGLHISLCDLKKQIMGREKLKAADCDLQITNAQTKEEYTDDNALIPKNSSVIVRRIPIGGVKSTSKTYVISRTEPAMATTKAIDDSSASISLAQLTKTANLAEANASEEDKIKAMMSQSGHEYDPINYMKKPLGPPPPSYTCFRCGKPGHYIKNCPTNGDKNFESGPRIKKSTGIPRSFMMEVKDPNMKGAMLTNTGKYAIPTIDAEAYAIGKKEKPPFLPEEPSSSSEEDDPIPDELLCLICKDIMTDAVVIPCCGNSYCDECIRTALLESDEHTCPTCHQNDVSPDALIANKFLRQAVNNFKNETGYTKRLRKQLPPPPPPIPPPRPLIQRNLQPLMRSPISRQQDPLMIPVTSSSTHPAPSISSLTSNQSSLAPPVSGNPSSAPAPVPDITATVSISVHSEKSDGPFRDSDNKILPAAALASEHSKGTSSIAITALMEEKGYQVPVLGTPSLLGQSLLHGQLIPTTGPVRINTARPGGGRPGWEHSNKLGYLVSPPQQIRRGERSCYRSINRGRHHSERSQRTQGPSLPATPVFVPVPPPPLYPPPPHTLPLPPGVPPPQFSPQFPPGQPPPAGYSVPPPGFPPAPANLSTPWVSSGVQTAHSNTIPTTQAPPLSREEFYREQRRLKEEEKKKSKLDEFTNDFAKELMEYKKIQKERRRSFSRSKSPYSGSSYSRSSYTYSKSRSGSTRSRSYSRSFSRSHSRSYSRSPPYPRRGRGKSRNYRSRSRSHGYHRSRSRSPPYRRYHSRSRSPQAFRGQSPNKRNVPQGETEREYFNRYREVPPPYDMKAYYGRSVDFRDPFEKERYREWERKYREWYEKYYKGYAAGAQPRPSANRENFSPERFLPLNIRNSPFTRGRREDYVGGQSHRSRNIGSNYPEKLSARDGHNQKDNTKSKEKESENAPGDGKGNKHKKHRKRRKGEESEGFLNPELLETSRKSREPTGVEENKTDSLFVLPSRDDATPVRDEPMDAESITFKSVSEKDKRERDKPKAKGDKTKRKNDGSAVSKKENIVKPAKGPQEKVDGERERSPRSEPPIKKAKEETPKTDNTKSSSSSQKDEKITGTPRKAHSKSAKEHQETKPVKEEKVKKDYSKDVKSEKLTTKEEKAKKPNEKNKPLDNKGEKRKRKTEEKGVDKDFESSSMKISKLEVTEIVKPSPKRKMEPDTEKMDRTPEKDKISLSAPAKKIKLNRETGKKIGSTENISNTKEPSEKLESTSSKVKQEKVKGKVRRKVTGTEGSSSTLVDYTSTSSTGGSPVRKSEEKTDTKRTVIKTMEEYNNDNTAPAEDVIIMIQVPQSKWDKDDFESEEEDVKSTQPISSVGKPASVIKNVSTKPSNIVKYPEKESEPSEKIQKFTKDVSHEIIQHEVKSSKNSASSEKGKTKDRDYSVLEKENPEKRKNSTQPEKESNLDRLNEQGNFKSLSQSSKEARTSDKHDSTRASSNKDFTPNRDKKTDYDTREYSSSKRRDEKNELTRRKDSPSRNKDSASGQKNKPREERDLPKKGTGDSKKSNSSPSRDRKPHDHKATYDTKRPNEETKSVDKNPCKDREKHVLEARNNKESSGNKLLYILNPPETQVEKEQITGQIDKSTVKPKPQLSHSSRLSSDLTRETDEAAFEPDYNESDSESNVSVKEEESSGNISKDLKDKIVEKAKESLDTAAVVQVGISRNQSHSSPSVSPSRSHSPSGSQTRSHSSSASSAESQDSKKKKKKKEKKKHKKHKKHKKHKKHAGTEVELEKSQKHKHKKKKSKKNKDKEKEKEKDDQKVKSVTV

These are yes or no findings as the source states them, for the method shown. Binding seen in cells or lysates may run through a third protein.

In this assay the target is Flag-IκBα (UniProt P25963). As to the kind of experiment: co-IP; HEK293 cells co-transfected with Flag-IκBα and HA-RBBP6 (full length or ΔRing Finger); lysates incubated with 2 μg antibody at 4 °C overnight, protein A/G agarose beads 4 h at 4 °C, PBS washes, western blot. A general note: In western blotting, separated proteins are transferred to a membrane and probed.

For “HA-RBBP6 (ΔRing Finger) (from UniProt Q7Z6E9)”, the binding result is “no binding”.
